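Viability assay of Plasmodium falciparum sporozoites; the read-out is not stated. The concentration is filed as 10 mM, unlikely as a test dose, so the dose is not known. Direction is inferred from retests: higher values go with lower viability. Strong results were mostly tested again. Of about 34,000 compounds tested this way, about 280 (0.84%) reached 50% or more in at least one test.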

Values are the deposited “Percent Effect”, in %.
How 0% and 100% were set is not recorded. Most values in the screen are low, and negative values occur.
This is an unselected part of the compounds tested.
Two or more numbers in one place are separate tests of the same structure; such repeats can differ widely.

compound	effect
CNc1ccc(CC2CCCN(C(=O)c3cccc(C)n3)C2)nn1 (stereo not drawn)	-2.845
CNC(=O)c1cn[nH]c1C1CCN(Cc2ccccc2F)C1 (stereo not drawn)	17.17
[H][C@@]12OCCN(C(=O)CC3=CCCCC3)[C@@]1([H])CC[C@@H]2OC	5.908
[H][C@@]12CCN(Cc3cccc(C)n3)C[C@@]1([H])O[C@@H](C)C2	1.308
O=C(C1CCC1)N1CCCC(c2ccnc(Nc3cnccn3)n2)C1 (stereo not drawn)	6.215
[H][C@@]12CS(=O)(=O)C[C@]1([H])N(C(=O)c1cnccn1)CCN2CCC	-14.24
CCc1csc(C2CCCN(C(=O)c3cc(Cl)c[nH]3)C2)n1 (stereo not drawn)	3.735
O=C(c1cnco1)N1CCC(Cc2cccc3ncccc23)CC1	7.315
Cc1cc(C[S+]([O-])Cc2ccccc2F)on1 (stereo not drawn)	1.99
O=C(O)C(F)(F)F.O=C(O)C(F)(F)F.O=C(O)C(F)(F)F.[H][C@]12C[C@H](C(=O)NCC3CC3)N(C)[C@@]1([H])CN(Cc1csc(C)n1)C2	6.137
O=C(NCCCn1cccn1)C1CCC(=O)N(CC2CCCCC2)C1 (stereo not drawn)	-9.211
CNC(=O)Cc1ccc(NC(=O)NC(C)C(C)C)cc1 (stereo not drawn)	-4.587 and -4.397 and -12.09
CSc1nccc(NCc2cc3n(n2)CCCN(S(C)(=O)=O)C3)n1	12.46
c1cnn(CC2CN(Cc3nc(-c4ccsc4)no3)CCO2)c1 (stereo not drawn)	-3.627
Cc1cnn(CC2CCCN2CCCS(=O)(=O)N(C)C)c1 (stereo not drawn)	7.624
CCN(CC)CCNC(=O)c1nn(CC)cc1Cl	4.825
[H][C@]12CCN(C(=O)CC(C)C)CC[C@@]1([H])S(=O)(=O)N(Cc1cccnc1)C2	9.968
Oc1nnc(-c2cccs2)c2sc(N3CCCCC3)nc12	6.59 and -1.953
Cn1cc(CN2CCC(c3[nH]ncc3S(C)(=O)=O)C2)cn1 (stereo not drawn)	-5.356
[H][C@@]12C[C@@H](OC)C[C@]1([H])CN(C(=O)Cc1ccc(C)s1)C2	20.39
Cc1cc(C)c(CNC(=O)NCc2ccc3c(c2)OCCO3)c(=O)[nH]1	-7.396 and -9.481 and 10.21
O=C1CSC(c2ccc(O)c(Cl)c2)c2c(n(C3CCOCC3)[nH]c2=O)N1 (stereo not drawn)	-0.6579
CCC(=O)N1CCC(c2nc3ccc(NC(C)C)cn3n2)CC1	-6.313
O=C(O)C(F)(F)F.[H][C@]12CCC(=O)N(c3ccccc3)[C@@]1([H])CCN2c1ncccn1	4.729
COc1cccc(C(=O)N2CCCC2c2ncc3c(n2)CCN(C)C3)c1 (stereo not drawn)	-12.55
O=C(O)C(F)(F)F.O=C(O)C(F)(F)F.[H][C@@]12CO[C@@H](CN3CCOCC3)[C@]1([H])CCN(Cc1ccsc1)C2	-5.526
Cc1cc(-c2ccc(=O)n(CCNC(=O)C3CCCCC3)n2)c(C)o1	11.48
CC(C)(C)CCNc1nccc(-c2c[nH][nH]c2=O)n1	-8.213
Cc1nocc1C(=O)N1CCc2c(CN(C)C)nn(C)c2C1	-1.805
NC(=O)CN1CCOCC(Cc2ccccc2Cl)C1 (stereo not drawn)	3.754
Cc1cc(CC(=O)N(CC2CN(C)CCO2)c2nccs2)no1 (stereo not drawn)	-8.939
CN(C)CC(=O)N1CCC2(CC1)COc1ccccc1S(=O)(=O)N(C)C2	-1.316
CC(CC(=O)c1ccco1)NC(=O)c1ccon1 (stereo not drawn)	-4.412
O=C(O)C(F)(F)F.[H][C@@]12OCCN(Cc3csc(C)n3)[C@@]1([H])CC[C@H]2OCC(=O)N(C)C	-5.569
COc1ccc2c(c1)CCN2Cc1nc2c(cnn2C)c(=O)[nH]1	15.59
COCCN1CCN(C(C(=O)O)c2ccc(SC)cc2)CC1 (stereo not drawn)	-3.9 and 1.631
CNc1ncc(C(=O)N2CCOC(C(=O)N3CCCCCC3)C2)cn1 (stereo not drawn)	6.716
CC(C)OCCCNC(=O)c1ccc(-c2ccco2)[nH]c1=O	9.28
CCc1nc(C2CCCN(C(=O)CC3CCOCC3)C2)no1 (stereo not drawn)	2.143
Cc1ccc(NC(=O)NC(C)c2nc[nH]n2)s1 (stereo not drawn)	-1.293 and -5.536 and -1.096
Cc1cc(-c2nccs2)nc(C2CCN(Cc3ccncc3)CC2)n1.Cl	1.705
CN1C(=O)CC[C@]12CC[C@@H](NCc1ccsc1)CC2.O=C(O)C(F)(F)F	10.42
Cc1ccc(NC2CCN(C(=O)COC3CCCC3)CC2)nn1	6.71
Cc1ncccc1C(=O)N1CCC2(CCc3ccccc3C(=O)N2)C1 (stereo not drawn)	-7.705
Cc1nc(NC(=O)CNC(=O)c2c(F)cccc2Cl)n[nH]1	-7.103
[H][C@@]12CS(=O)(=O)C[C@]1([H])N(Cc1ccc(CCC)o1)CCN2c1ncccn1	6.689
Cc1nc(N)c2ccc(C3CCCN3)nc2n1.Cl (stereo not drawn)	7.251
CC(C)NC(=O)Nc1ccc(CNCc2ccc(OC(F)F)cc2)cc1	3.106
O=C(c1cscn1)N1CCC2(CCCN(CCOc3ccccc3)C2)C1 (stereo not drawn)	6.498
CN(CC(=O)Nc1ccc(Br)cn1)C(=O)Cc1ccc(O)cc1	-21.32
CCOc1ccccc1N1CCN(C(=O)NCc2cc[nH]n2)CC1	10.39
CN(CC1(O)CCCN(CCC2CCCCC2)C1=O)C1CCOCC1 (stereo not drawn)	6.223
O=C(Nc1nncs1)NC1CCOc2ccccc21 (stereo not drawn)	-2.526
Cc1nn(C)c2c(N3CCC(C)CC3)nc(C3CC3)nc12	-11.34 and -15.3
O=C(CCc1cscn1)N1CCCC(c2ccn[nH]2)C1 (stereo not drawn)	-23.71
CCc1nc(CCNC(=O)Nc2cc(C(N)=O)ccc2OC)cs1	-2.206
O=C(O)C(F)(F)F.O=C(O)C(F)(F)F.[H][C@@]12CN(Cc3cccs3)C[C@@]1([H])N(Cc1ccncc1)C(=O)CO2	-1.678

Repeated from the top, 6 entries:

compound	effect
CNc1ccc(CC2CCCN(C(=O)c3cccc(C)n3)C2)nn1 (stereo not drawn)	-2.845
CNC(=O)c1cn[nH]c1C1CCN(Cc2ccccc2F)C1 (stereo not drawn)	17.17
[H][C@@]12OCCN(C(=O)CC3=CCCCC3)[C@@]1([H])CC[C@@H]2OC	5.908
[H][C@@]12CCN(Cc3cccc(C)n3)C[C@@]1([H])O[C@@H](C)C2	1.308
O=C(C1CCC1)N1CCCC(c2ccnc(Nc3cnccn3)n2)C1 (stereo not drawn)	6.215
[H][C@@]12CS(=O)(=O)C[C@]1([H])N(C(=O)c1cnccn1)CCN2CCC	-14.24

Source: ChEMBL document CHEMBL3988442, “University of Dundee, Small-Polar-MMV Screening Library” (2021).